No constants are given. Whether binding was seen depends on the method and setting. Binding seen in cells or lysates may run through a third protein. Some binding calls cover weakened binding; strength is not graded here. Where a sequence is shown, tags or fusion partners need not be part of it.
Biological target: T1, HA-HBP1 (UniProt O60381)
T1 sequence: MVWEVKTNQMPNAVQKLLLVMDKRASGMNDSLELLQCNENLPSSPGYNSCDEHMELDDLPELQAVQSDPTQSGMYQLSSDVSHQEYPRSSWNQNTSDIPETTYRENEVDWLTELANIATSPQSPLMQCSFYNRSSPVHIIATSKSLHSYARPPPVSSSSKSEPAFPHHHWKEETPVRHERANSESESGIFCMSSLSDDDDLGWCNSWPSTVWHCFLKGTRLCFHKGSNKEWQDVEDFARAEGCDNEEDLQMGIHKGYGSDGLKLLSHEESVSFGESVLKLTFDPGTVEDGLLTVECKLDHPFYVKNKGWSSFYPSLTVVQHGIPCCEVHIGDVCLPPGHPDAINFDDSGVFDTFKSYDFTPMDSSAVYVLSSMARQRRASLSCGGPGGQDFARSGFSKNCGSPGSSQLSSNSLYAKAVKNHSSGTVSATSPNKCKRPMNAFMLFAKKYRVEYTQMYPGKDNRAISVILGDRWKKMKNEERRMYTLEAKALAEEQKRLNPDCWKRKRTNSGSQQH
Experiment: co-IP; 293T cells co-transfected with HA-HBP1 and FLAG-HBx; lysates in IP lysis buffer (25 mM Tris-HCl pH 7.4, 150 mM NaCl, 1% Nonidet P-40, 1 mM EDTA, 5% glycerol) incubated with anti-FLAG or anti-HA antibody and protein A-Sepharose overnight at 4 °C; Western blotting with anti-HA or anti-FLAG

Sequences of proteins named here, by UniProt entry; tags and fusion partners are left off.
UniProt P03165: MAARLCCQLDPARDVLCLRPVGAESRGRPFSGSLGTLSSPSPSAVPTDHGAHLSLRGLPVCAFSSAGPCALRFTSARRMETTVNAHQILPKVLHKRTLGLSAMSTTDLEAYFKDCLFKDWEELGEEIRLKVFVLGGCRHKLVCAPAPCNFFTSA

FLAG-HBx (from UniProt P03165 1-154)
binding: binds
